Results taken from article doi:10.1101/2021.07.16.452648.
No constants are given. Whether binding was seen depends on the method and setting. In cells and extracts the contact can be indirect. Some binding calls cover weakened binding; strength is not graded here. Tags and fused reporters may be left off the sequences shown. Values belong to the molecule of their own block, whether it stands above or below them.

Protein sequences, listed by entry. Tags and fused reporters are not part of them. Residues count along the entry.
UniProt P08195, residues 102-630: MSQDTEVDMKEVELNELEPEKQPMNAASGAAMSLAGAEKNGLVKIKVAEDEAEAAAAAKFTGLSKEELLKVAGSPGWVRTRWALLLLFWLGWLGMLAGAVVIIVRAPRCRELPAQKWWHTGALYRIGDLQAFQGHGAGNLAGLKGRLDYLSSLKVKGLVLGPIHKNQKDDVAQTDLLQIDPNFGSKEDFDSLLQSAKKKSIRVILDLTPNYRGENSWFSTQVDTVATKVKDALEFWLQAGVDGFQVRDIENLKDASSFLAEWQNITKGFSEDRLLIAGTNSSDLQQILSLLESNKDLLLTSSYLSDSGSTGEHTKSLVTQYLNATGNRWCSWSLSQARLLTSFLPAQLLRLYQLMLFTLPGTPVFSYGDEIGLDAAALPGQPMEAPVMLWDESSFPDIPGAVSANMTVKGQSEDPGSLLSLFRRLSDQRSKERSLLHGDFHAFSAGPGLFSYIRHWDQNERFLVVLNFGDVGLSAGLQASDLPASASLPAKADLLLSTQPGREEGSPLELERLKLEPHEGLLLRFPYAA

Legend:
[1] = biological target: T1, cysteine string protein-α (CSPα) WT, FLAG- and SBP-tagged (UniProt Q9H3Z4); assay: co-IP
T1 sequence: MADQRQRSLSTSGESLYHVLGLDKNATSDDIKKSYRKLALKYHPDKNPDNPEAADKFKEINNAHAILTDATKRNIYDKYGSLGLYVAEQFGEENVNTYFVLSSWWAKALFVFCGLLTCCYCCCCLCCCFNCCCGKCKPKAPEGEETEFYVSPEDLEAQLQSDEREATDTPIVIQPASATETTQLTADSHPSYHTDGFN

[2] = biological target: CD98hc::GFP (GFP tag at the endogenous CD98hc locus) (human (endogenous in HEK293T)) (UniProt P08195); assay: co-IP

binding [1]: binds
Molecule: CD98hc (endogenous) (from UniProt P08195 1-529)

binding [2]: binds
B1: CSPα WT transfected into CD98hc::GFP cells (protein, UniProt Q9H3Z4 1-198)
chain: T1 sequence
